Laboratory results published in PubChem BioAssay AID588590 (National Center for Advancing Translational Sciences (NCATS), 2011).
In all, about 390,000 compounds went through this assay and about 4,000 (1%) were called active. Inconclusive results, whose numbers are uncertain, are shown with a selection of clear calls. The call rests on the fitted dose curve; in most records, active means well fitted inhibition curve with a large enough effect; inconclusive means small, poorly fitted or top-dose-only effect, or another doubt; inactive means no such curve, though single readings can be large or run the other way. A potency beside an inconclusive call is a rough fit, not a confirmed value.

Protein sequences, listed by entry. Tags and fused reporters are not part of them. Lines headed by an entry give the natural chain unless they say otherwise; changes in a name come on top.
UniProt Q9UNA4: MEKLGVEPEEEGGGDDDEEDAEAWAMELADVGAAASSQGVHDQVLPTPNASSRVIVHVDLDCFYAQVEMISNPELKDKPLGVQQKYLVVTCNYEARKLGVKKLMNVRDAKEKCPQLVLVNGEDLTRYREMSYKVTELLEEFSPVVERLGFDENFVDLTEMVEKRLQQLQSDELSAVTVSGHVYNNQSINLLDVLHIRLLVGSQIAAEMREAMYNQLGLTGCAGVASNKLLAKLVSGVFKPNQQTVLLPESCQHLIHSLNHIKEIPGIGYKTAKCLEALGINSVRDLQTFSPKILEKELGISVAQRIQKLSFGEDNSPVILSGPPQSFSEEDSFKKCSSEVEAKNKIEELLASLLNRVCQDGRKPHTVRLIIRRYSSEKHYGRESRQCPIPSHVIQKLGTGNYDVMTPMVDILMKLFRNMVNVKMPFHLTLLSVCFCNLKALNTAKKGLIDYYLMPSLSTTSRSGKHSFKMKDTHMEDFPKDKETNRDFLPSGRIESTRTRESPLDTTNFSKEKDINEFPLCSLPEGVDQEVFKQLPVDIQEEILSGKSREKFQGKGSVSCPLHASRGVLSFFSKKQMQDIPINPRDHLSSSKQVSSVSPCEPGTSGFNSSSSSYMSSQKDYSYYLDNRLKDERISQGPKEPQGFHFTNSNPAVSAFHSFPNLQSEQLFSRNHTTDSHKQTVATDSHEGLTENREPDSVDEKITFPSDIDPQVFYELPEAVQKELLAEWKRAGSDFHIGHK

target: DNA polymerase iota (Homo sapiens) (UniProt Q9UNA4); test: qHTS for Inhibitors of Polymerase Iota; conditions: Pol iota fluorescent replication assay, 10 min; series mostly up to 115 µM; activity, negative = inhibition: at the top concentration
Procedure, shortened: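 Pol iota at 10 nM preincubated 15 min with compounds at room temperature; reaction started with fluorescent substrate, 50 nM final. Fluorescence read kinetically at 0 and 10 min; buffer-only wells as negative control.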
Potency means the concentration at half of the fitted maximal effect.

Compound	Potency	activity, negative = inhibition
Cc1cccc[n+]1CC(=O)Nc1ccc([N+](=O)[O-])cc1Cl	inconclusive: 35.5 µM [inhibitor, single point]	–
COc1cc(C(c2c(C)[nH][nH]c2=O)c2c(C)[nH][nH]c2=O)ccc1OS(=O)(=O)c1ccccc1	active: 10 µM	–
Cc1nnc(SCC(=O)Nc2sc3c(c2C(N)=O)CCC(C)C3)[nH]c1=O (centres undefined)	–	inactive: 7.15%
CCOC(=O)C1CCCCN1Cc1ccccc1C(F)(F)F (centres undefined)	inconclusive: 28.2 µM [inhibitor, partial curve, poor fit]	–
Cc1ccc(C(CC(=O)N2CCOCC2)c2ccco2)cc1 (centres undefined)	inconclusive: 39.8 µM [inhibitor, partial curve, poor fit]	–
COc1ccc(OC)c(NC(=O)CSc2nnc(C3CCCCC3)n2N)c1	–	inactive: -15.7%
CC12CCC(=O)C=C1C(O)CC1C2CCC2(C)C1CCC2(O)C(=O)CO (centres undefined)	inconclusive: 79.4 µM [inhibitor, partial curve, poor fit]	–
Cc1ccc(C(=O)OCC(=O)Nc2cccc(S(=O)(=O)N3CCOCC3)c2)o1	inconclusive: 11.2 µM [inhibitor, partial curve, poor fit]	–
CC(/C=N/n1c(-c2ccc(C)cc2)n[nH]c1=S)=C\c1ccco1	–	inactive: -12%
CC1CCCCC1NC(=O)CCCCn1c(=O)[nH]c2ccsc2c1=O (centres undefined)	inconclusive: 79.4 µM [inhibitor, partial curve]	–
Cc1ccc(-c2cc(C(=O)O)c3cc(Br)ccc3n2)o1	inconclusive: 15.8 µM [inhibitor, full curve, poor fit]	–
CCOC(=O)c1ccc(NC(=O)C2CCN(S(=O)(=O)Cc3ccccc3)CC2)cc1	–	inactive: 26.8%
COc1[nH]c(/N=C/c2ccco2)c(C#N)c1C#N	active: 70.8 µM	–
CCc1ccc(NCc2cc3ccc(OC)cc3n(CC(=O)Nc3ccccc3OC)c2=O)cc1	–	inactive: 27.9%
Cn1nnc(NC(=O)c2ccc(C(C)(C)C)cc2)n1	–	inactive: 13.5%
NC(=O)CN1CCN(CCN2C(=O)c3cccc4cccc(c34)C2=O)CC1	–	inactive: -28.1%
O=C(OCc1cc(=O)n2nc(C3CC3)sc2n1)c1ccc(NC(=O)c2ccccc2Cl)cc1	–	inactive: 14.6%
Cc1nn(CC(=O)N2CCC(C)CC2)c(=O)c2cccn12	–	inactive: -12.8%
c1ccc2sc(SN3CCOCC3)nc2c1	–	inactive: -2.52%
CCc1ccc(C2=C(C)C(N3CCC(C(=O)Nc4ccc(F)cc4)CC3)=NS2(=O)=O)cc1	inconclusive: 100 µM [inhibitor, single point]	–
O=C1/C(=C\c2cccnc2)CN(Cc2ccccc2)C/C1=C\c1cccnc1	inconclusive: 12.6 µM [inhibitor, partial curve]	–
Cc1ccc(NC(=O)C(C)OC(=O)c2cc(=O)[nH]c3ccccc23)cc1S(=O)(=O)N1CCOCC1 (centres undefined)	active: 25.1 µM	–
Fc1ccc(Nc2nc(-c3cccc(Cl)c3)c3c(n2)-c2ccccc2OC3)cc1	inconclusive: 89.1 µM [inhibitor, partial curve, poor fit]	–

Compound	Potency	activity, negative = inhibition
CC1CCCN(C(=O)c2cc(S(=O)(=O)N3CCCCC3)c[nH]2)C1 (centres undefined)	inconclusive: 35.5 µM [inhibitor, single point]	–
CN(C)c1nc(OCCNC(=O)Nc2ccccc2)nc(N2CCOCC2)n1	inconclusive: 79.4 µM [inhibitor, single point]	–
Cn1nc2c(c1C(=O)O)CCCC2	inconclusive: 50.1 µM [inhibitor, partial curve, poor fit]	–
CCc1ccc2oc(C(=O)Nc3cc(Cl)ccc3OC)cc(=O)c2c1	–	inactive: 12.7%
O=C(c1cccc(F)c1)N1CCN(C(=O)C2CC2)CC1	inconclusive: 39.8 µM [inhibitor, single point]	–
COc1ccc(C)cc1Nc1nc(C)nc2c1oc1ccccc12	inconclusive: 35.5 µM [inhibitor, single point]	–
O=C1N/C(=N/NC(=O)c2cccc3ccccc23)S/C1=C\c1ccccc1OCc1ccccc1	active: 28.2 µM	–
COc1cccc(NC(=S)N(CCC(C)C)C2CCN(C(C)=O)CC2)c1	inconclusive: 28.2 µM [inhibitor, single point]	–
O=C1CCCC(=O)N1c1ccc(F)cc1	–	inactive: 12.3%
CCC(C)N=C1Sc2nc3ccc(C)cc3cc2CN1CCOC (centres undefined)	–	inactive: 19.2%
CCCCc1c(C)nn(-c2nnc3c4ccccc4n(CC)c3n2)c1C	inconclusive: 39.8 µM [inhibitor, single point]	–
CN(C)CCn1c2ccccc2c2nc3ccc([N+](=O)[O-])cc3cc21	inconclusive: 35.5 µM [inhibitor, partial curve, poor fit]	–
Cc1ccc(N2CSC3=C(C#N)C(c4cccs4)CC(=O)N3C2)cc1 (centres undefined)	inconclusive: 1 µM [inhibitor, full curve, poor fit]	–
Cc1ccc(CC2C(=O)N(c3ncccn3)C(=O)C2C)cc1 (centres undefined)	inconclusive: 100 µM [inhibitor, single point]	–
Cc1cccc(NC(=O)COC(=O)c2ccccc2OCc2cccc(Br)c2)c1	inconclusive: 89.1 µM [inhibitor, single point]	–
COc1ccccc1N1CCN(c2ccc(=O)n(CC(=O)O)n2)CC1	–	inactive: 24.8%
COc1ccc2c(c1)C=C/C2=C\c1ccc(N(C)C)cc1	–	inactive: 7.21%
Cc1ccc(CN2CCN(C(=O)c3ccncc3)CC2)cc1	inconclusive: 22.4 µM [inhibitor, single point]	–
CC1CCCC(N2CCN(S(=O)(=O)c3ccccc3)CC2)C1 (centres undefined)	–	inactive: 114%
CN1CCN(C(=O)C2=C[C@@H](c3ccc4c(c3)OCO4)C[C@@H](OCc3ccc(CO)cc3)O2)CC1	inconclusive: 89.1 µM [inhibitor, single point]	–
COc1cc(Cl)c(C)cc1NC(=O)c1ccccc1NC(=O)CN1CCOCC1	inconclusive: 89.1 µM [inhibitor, partial curve, poor fit]	–
CCC1Nc2ncnc(N3CCCCC3)c2N(Cc2ccc(Br)cc2)C1=O (centres undefined)	–	inactive: -10.2%
O=S(=O)(Nc1nccs1)c1cc(Cl)ccc1Cl	inconclusive: 17.8 µM [inhibitor, partial curve, poor fit]	–

Compound	Potency	activity, negative = inhibition
Cc1cnc(=O)[nH]c1SCc1cccc([N+](=O)[O-])c1	inconclusive: 89.1 µM [inhibitor, single point]	–
Cc1ccc(Nc2nc(N)nc(CN3CCN(Cc4ccccc4)CC3)n2)cc1Cl	inconclusive: 14.1 µM [inhibitor, partial curve]	–
Cc1ccc(S(=O)(=O)/N=C(/Nc2ccccn2)c2ccc(Cl)cc2)cc1	inconclusive: 3.55 µM [inhibitor, partial curve, poor fit]	–
O=C(Nc1cccnc1)C1CC(=O)N(c2ccc(F)cc2)C1 (centres undefined)	–	inactive: 13.9%
N#CCC(CNc1ncc(C(F)(F)F)cc1Cl)OC(=O)c1c(F)cccc1F (centres undefined)	inconclusive: 22.4 µM [inhibitor, full curve, poor fit]	–
CCOc1ccc(C(=O)Nc2cccc3nsnc23)cc1[N+](=O)[O-]	–	inactive: 23.7%
NC(=O)c1ccc(NC(=O)Cc2cccs2)cc1	inconclusive: 20 µM [inhibitor, full curve, poor fit]	–
CCOC(=O)N1CCN(/[N+]([O-])=N/Oc2ccc([N+](=O)[O-])cc2[N+](=O)[O-])CC1	inconclusive: 10 µM [inhibitor, full curve]	–
CC(=O)Nc1ccc(NC(=O)CSc2ccc(-c3cccnc3)nn2)cc1	inconclusive: 56.2 µM [inhibitor, partial curve]	–
COc1ccc(N(C(=O)COc2ccc(Br)cc2)S(=O)(=O)c2ccc(C)cc2)cc1	–	inactive: -4.36%
CN(Cc1ccccc1)C(=O)c1cc2c(s1)-c1ccc(Cl)cc1SC2	–	inactive: 35.3%
CCn1cc(CN2CCC(C(=O)Nc3cccc(-c4cccc(F)c4)c3)CC2)cn1	inconclusive: 89.1 µM [inhibitor, single point]	–
CC(C)c1nc(SCC(=O)Nc2nccs2)c2ccccc2n1	inconclusive: 39.8 µM [inhibitor, single point]	–
Cc1ccc(S(=O)(=O)N[C@@H](Cc2ccccc2)C(=O)CCl)cc1	inconclusive: 15.8 µM [inhibitor, partial curve, poor fit]	–
O=C(N/N=C/c1ccco1)c1cc(-c2ccc(Br)s2)[nH]n1	inconclusive: 44.7 µM [inhibitor, partial curve, poor fit]	–
C#CCOCCOCCOCCNc1nc(N2CCN(C(=O)[C@H](CCC(=O)O)n3cc(C(N)CO)nn3)CC2)nc(N2CCN(C(=O)[C@H](Cc3cc4ccccc4[nH]3)n3cc(C(N)[C@H](C)CC)nn3)CC2)n1 (some centres undefined)	inconclusive: 3.16 µM [inhibitor, partial curve, poor fit]	–
COc1ccc(NC(=O)c2ccc3c(c2)NC(=O)CS3)cc1	–	inactive: -20.6%
Cc1noc(C)c1COc1ccc(C(=O)OCC(=O)NC23CC4CC(CC(C4)C2)C3)cc1	inconclusive: 7.94 µM [inhibitor, partial curve, poor fit]	–
Cc1ccc(-n2c(Cc3cccn3C)nnc2SCC(=O)NCc2ccc3c(c2)OCO3)cc1	inconclusive: 79.4 µM [inhibitor, partial curve, poor fit]	–
CC(/C=C/c1ccc(C)o1)=C\C(=O)O	–	inactive: -20.5%
O=C(C#Cc1ccccc1)c1ccco1	inconclusive: 10 µM [inhibitor, partial curve, poor fit]	–
O=C1[C@H]2[C@H](C=CC[C@H]2C(=O)N2CCOCC2)CCN1Cc1ccc(Cl)c(Cl)c1	inconclusive: 7.94 µM [inhibitor, partial curve, poor fit]	–
CN1CCN(CC(O)COCc2ccc3c(c2)OCO3)CC1 (centres undefined)	inconclusive: 56.2 µM [inhibitor, full curve]	–

Arranged by count of non-hydrogen atoms (falling): some entries from above
Compound	Potency	activity, negative = inhibition
C#CCOCCOCCOCCNc1nc(N2CCN(C(=O)[C@H](CCC(=O)O)n3cc(C(N)CO)nn3)CC2)nc(N2CCN(C(=O)[C@H](Cc3cc4ccccc4[nH]3)n3cc(C(N)[C@H](C)CC)nn3)CC2)n1 (some centres undefined)	inconclusive: 3.16 µM [inhibitor, partial curve, poor fit]	–
Cc1ccc(-n2c(Cc3cccn3C)nnc2SCC(=O)NCc2ccc3c(c2)OCO3)cc1	inconclusive: 79.4 µM [inhibitor, partial curve, poor fit]	–
Cc1noc(C)c1COc1ccc(C(=O)OCC(=O)NC23CC4CC(CC(C4)C2)C3)cc1	inconclusive: 7.94 µM [inhibitor, partial curve, poor fit]	–
Cc1ccc(Nc2nc(N)nc(CN3CCN(Cc4ccccc4)CC3)n2)cc1Cl	inconclusive: 14.1 µM [inhibitor, partial curve]	–
O=C1[C@H]2[C@H](C=CC[C@H]2C(=O)N2CCOCC2)CCN1Cc1ccc(Cl)c(Cl)c1	inconclusive: 7.94 µM [inhibitor, partial curve, poor fit]	–
CCOC(=O)N1CCN(/[N+]([O-])=N/Oc2ccc([N+](=O)[O-])cc2[N+](=O)[O-])CC1	inconclusive: 10 µM [inhibitor, full curve]	–
Cc1ccc(S(=O)(=O)/N=C(/Nc2ccccn2)c2ccc(Cl)cc2)cc1	inconclusive: 3.55 µM [inhibitor, partial curve, poor fit]	–
CCOc1ccc(C(=O)Nc2cccc3nsnc23)cc1[N+](=O)[O-]	–	inactive: 23.7%
O=C(Nc1cccnc1)C1CC(=O)N(c2ccc(F)cc2)C1 (centres undefined)	–	inactive: 13.9%
O=C(N/N=C/c1ccco1)c1cc(-c2ccc(Br)s2)[nH]n1	inconclusive: 44.7 µM [inhibitor, partial curve, poor fit]	–
Cc1cnc(=O)[nH]c1SCc1cccc([N+](=O)[O-])c1	inconclusive: 89.1 µM [inhibitor, single point]	–
NC(=O)c1ccc(NC(=O)Cc2cccs2)cc1	inconclusive: 20 µM [inhibitor, full curve, poor fit]	–
O=C(C#Cc1ccccc1)c1ccco1	inconclusive: 10 µM [inhibitor, partial curve, poor fit]	–
